These are yes or no findings as the source states them, for the method shown. Some binding calls cover weakened binding; strength is not graded here.
Target: Hsp70 (heat shock protein 70), inducible gene from the pETWThsp70 vector; recombinant in vitro and over-expressed in COS-1 cells (UniProt P0DMV8)
Assay: peptide binding to Hsp70, method not described

Protein sequences, listed by entry. Tags and fused reporters are not part of them.
UniProt P0DMV8: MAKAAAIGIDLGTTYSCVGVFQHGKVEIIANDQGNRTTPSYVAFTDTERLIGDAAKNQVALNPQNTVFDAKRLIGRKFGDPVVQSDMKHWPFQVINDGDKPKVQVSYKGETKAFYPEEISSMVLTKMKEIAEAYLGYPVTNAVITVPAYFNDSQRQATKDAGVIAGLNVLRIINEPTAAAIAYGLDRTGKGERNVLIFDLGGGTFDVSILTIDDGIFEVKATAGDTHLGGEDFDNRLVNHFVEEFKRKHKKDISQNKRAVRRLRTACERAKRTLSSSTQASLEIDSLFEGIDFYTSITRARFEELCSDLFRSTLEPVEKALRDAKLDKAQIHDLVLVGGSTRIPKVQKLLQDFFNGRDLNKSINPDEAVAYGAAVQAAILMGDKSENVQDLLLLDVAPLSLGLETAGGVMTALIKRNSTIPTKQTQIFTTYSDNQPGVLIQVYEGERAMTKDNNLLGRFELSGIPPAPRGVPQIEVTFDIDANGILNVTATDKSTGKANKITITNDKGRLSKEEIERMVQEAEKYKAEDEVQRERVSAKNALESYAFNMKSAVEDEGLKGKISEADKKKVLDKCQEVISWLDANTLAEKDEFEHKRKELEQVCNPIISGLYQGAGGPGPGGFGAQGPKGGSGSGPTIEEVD

binding: binds
Binder: FTLTISS [FTLTISS peptide (residues 71-77 of human kappa-IV light chain variable domain)]
